Data set [1] in a line: general procedure: Fmoc solid-phase peptide synthesis; Rink Amide MBHA resin (0.58 mmol/g); MBHA resin (0.91 mmol/g) for Boc; Wang resin for C-terminal acids; DIC/HOBt, double-coupling with HBTU/HOBt/DIEA; HBTU/DIEA (Boc). To be noted: whole synthesis, analytical HPLC, scale of the general procedure 0.035 mmol, 0.20 mmol (Boc).
A further data set can be described thus: peptide synthesis. To be noted: whole synthesis.
The nature of data set [2]: Fmoc solid-phase peptide synthesis; Rink Amide MBHA; DIC/HOBt, double-coupling with HBTU/HOBt/DIEA; HBTU/DIEA (Boc). To be noted: whole synthesis, scale 0.035 mmol.
A short description of data set [3]: general procedure: Fmoc solid-phase peptide synthesis; Rink Amide MBHA resin (0.58 mmol/g); Wang resin for C-terminal OH; MBHA resin (0.91 mmol/g) for Boc chemistry; DIC/HOBt, double-coupling with HBTU/HOBt/DIEA; HBTU/DIEA (Boc). To be noted: whole synthesis, scale of the general procedure 0.035 mmol, 0.20 mmol.

These results are taken from US9458195B2 (Ipsen Pharma S.A.S., priority 2005, dated 2016).

Bridges are numbered along the chain shown (N, C = ends). Where no end group is shown, it is not given here. [ ]: non-standard residue; d: D form. 2Nal = N[C@@H](Cc1ccc2ccccc2c1)C(=O)O; Cha = N[C@@H](CC1CCCCC1)C(=O)O; Pen = CC(C)(S)[C@H](N)C(=O)O; Nle = CCCC[C@H](N)C(=O)O; GABA = NCCCC(=O)O

For the substance “Ac-Arg-c(Cys-D-Ala-His-D-2-Nal-Arg-Trp-Cys)-NH2”, in data set [1], the “purity (crude or final not stated)” value stood at 99.9%.
As for “Ac-Gaba-c(Asp-His-D-Phe-Arg-Trp-Gaba-Lys)-NH2”, the “purity (crude or final not stated)” value in the data set “peptide synthesis” was found to be 92.5%.
On to “Ac-Chg-c(Asp-His-D-Phe-Arg-Trp-Gaba-Lys)-NH2”, for which, in the data set “peptide synthesis”, the “purity (crude or final not stated)” value is listed as 99%.
As to “Ac-hPhe-c(Asp-His-D-Phe-Arg-Trp-Gaba-Lys)-NH2”, in “peptide synthesis”, the “purity (crude or final not stated)” value was 70%.
For “Ac-Nle-c(Cys-D-Ala-His-D-Phe-Arg-Trp-Cys)-NH2”, the “final HPLC purity” value in data set [1] is “approximately 88%”. In data set [2], this substance registered an isolated mass of 10.3 mg and an isolated yield of 27% yield. Besides, in data set [3], the “purity (crude or final not stated)” value was determined as 98.3%.
For the substance “Ac-D-Chg-c(Asp-His-D-Phe-Arg-Trp-Gaba-Lys)-NH2”, the “purity (crude or final not stated)” value in the data set “peptide synthesis” came to 99%.
Turning to “Ac-Nle-c(Cys-3-Pal-D-Phe-Arg-Trp-Gaba-Cys)-NH2”, the “purity (crude or final not stated)” value in the data set “peptide synthesis” came to 96.6%.
Still for that read-out and setting: the value for “Ac-Nle-c(Asp-His-D-Phe-Arg-Trp-Gaba-Lys)-NH2” was 91.5%.
“Ac-[Nle]CHFR[dW][GABA]C-NH2 (disulfide 2-8)”: the “purity (crude or final not stated)” value in “peptide synthesis” amounted to 95.8%.
On to “[Nle]CH[dF]RW[GABA]C-NH2 (disulfide 2-8)”, for which the “purity (crude or final not stated)” value in “peptide synthesis” stood at 97.6%.
Same read-out and setting: the value for “Ac-Nle-c(Cys-His-D-Phe-Arg-D-Trp-Gaba-Cys)-NH2” was 97%; that for “Ac-D-Cha-c(Asp-His-D-Phe-Arg-Trp-Gaba-Lys)-NH2” was 99%; that for “Ac-[2Nal]CH[dF]RW[GABA]C-NH2 (disulfide 2-8)” was 95.2%.
In the case of “Ac-[dR]CH[dF]RW[GABA][Pen]-NH2 (disulfide 2-8)”, the “purity (crude or final not stated)” value in “peptide synthesis” is 99.9%.
With “Ac-Nle-c(D-Cys-Gaba-His-D-Phe-Arg-Trp-D-Cys)-NH2”, the “purity (crude or final not stated)” value in “peptide synthesis” was 90%.
In the case of “Ac-[Cha]CH[dF]RW[GABA]C-NH2 (disulfide 2-8)”, in “peptide synthesis”, the “purity (crude or final not stated)” value was determined as 95.8%.
